# The campaign covered roughly 400,000 compounds. About 5,500 (1.4%) were called active. The shares of active, inactive and inconclusive entries below differ from those in the screen. The call rests on the fitted dose curve; in most records, active means well fitted cell-killing curve with a large enough effect; inconclusive means small, poorly fitted or top-dose-only effect, or effect the other way; inactive means flat fitted curve, though single readings scatter. Where the call is inconclusive, the potency comes from a doubtful curve fit.
# Test: qHTS assay for MDR1-selective chemotherapeutics: Primary screen using the parental adenocarcinoma cell KB-3-1; further: nearly all actives have a fitted effect of over 60% in size
# Settings: KB-3-1 viability, CellTiter-Glo ATP luminescence, 72 h; activity change, negative = cytotoxic: at 46.1 µM (top of the series)
# Outline: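 Using CellTiter-Glo luminescence, growth of non-resistant KB-3-1 adenocarcinoma cells is assessed 72 h after pin-tool compound addition at 37 °C. Normalized responses across the concentration series yield fitted curves.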
# On the % scale 0 is the no-effect control and ±100 the full control effect; potency means the concentration at half of the fitted maximal effect.
Compound,"activity change, negative = cytotoxic",Potency
COc1cc(/C=N/NC2=NC(C)(C)Cc3ccccc32)cc(OC)c1OC,inconclusive: -0.375%,–
CN(C)CCN(C(=O)c1ccccc1Cl)c1nc2c(Cl)cccc2s1,inactive: -1.18%,–
COc1ccc(N(CC(=O)Nc2cc(C)ccc2C)S(=O)(=O)c2ccccc2[N+](=O)[O-])c(OC)c1,–,"inconclusive: 16.4 µM [rising, single point]"
COc1ccc(C(=O)c2ccc(N(C)C)cc2)c(OC)c1,–,active: 5.62 µM
CCOC(=O)c1ccccc1NS(=O)(=O)c1ccc(OC)cc1,–,"inconclusive: 20.6 µM [cytotoxic, partial curve, poor fit]"
Cc1ccc(-n2c3nc(=O)[nH]c(=O)c-3cc3cc([N+](=O)[O-])ccc32)cc1,–,"inconclusive: 23.1 µM [cytotoxic, single point]"
Cc1ccc(C)c(S(=O)(=O)C(C#N)c2nc3ccccc3nc2N2CCOCC2)c1 (stereo not given),–,"inconclusive: 29.1 µM [cytotoxic, single point]"
Cc1ccc(C)c(Cn2c(=O)n(-c3ccc(Cl)cc3)c(=O)c3c4c(sc32)CCC4)c1,inactive: 25.2%,–
C=CCn1c(CCC(O)COCCC)n[nH]c1=S (stereo not given),inactive: -6.03%,–
CC(=O)OC1=CN(Cc2ccccc2)S(=O)(=O)c2ccccc21,inactive: 6.15%,–
CCN(C(=O)COC(=O)c1oc2ccc(OC)cc2c1C)C1CCCCC1,–,"inconclusive: 29.1 µM [rising, single point]"
Cc1cnc(C(=O)Nc2nc(-c3ccccc3)cs2)cn1,inactive: -3.9%,–
COc1ccccc1N1CCN(c2nc3ccc(C(=O)c4ccccc4)cc3n3c(C)nnc23)CC1,inactive: 0.615%,–
O=[N+]([O-])c1ccc(/C=C/c2cc(Cl)nc3ccccc23)cc1,–,"inconclusive: 7.31 µM [cytotoxic, partial curve]"
COc1ccc(OC)c(-n2nnnc2SCC(=O)N2CCN(C(=O)c3ccco3)CC2)c1,–,"inconclusive: 1.64 µM [rising, full curve, poor fit]"
O=C(c1ccc2c(c1)N(Cc1ccc(Cl)cc1)C(=O)c1ccccc1S2(=O)=O)N1CCCCCC1,–,"inconclusive: 29.1 µM [cytotoxic, single point]"
COc1ccc(-c2cc3c(=O)n(CC(=O)NCc4ccccc4OC)ncn3n2)cc1,–,"inconclusive: 29.1 µM [cytotoxic, single point]"
COc1cccc(N2C(=O)C(Cc3c[nH]c4ccccc34)NC2=S)c1 (stereo not given),–,"inconclusive: 14.6 µM [rising, partial curve]"
O=S(=O)(c1ccc(-c2nnc(SCc3ccccc3)o2)cc1)N1CCCC1,inconclusive: 0.578%,–
Cc1ccc(S(=O)(=O)Nc2cc(C)cn(Cc3ccc(F)cc3)c2=O)cc1,–,"inconclusive: 14.6 µM [cytotoxic, partial curve]"
CCOc1ccc(S(=O)(=O)NCC(c2ccc(N(C)C)cc2)N2CCCC2)cc1 (stereo not given),inactive: -0.451%,–
CCCCNC(=O)c1ccc(Cn2c(=S)[nH]c3c([nH]c4ccc(OC)cc43)c2=O)cc1,–,"inconclusive: 20.6 µM [cytotoxic, single point]"
Cc1ccc(N2C(=O)C(CC(=O)Nc3ccc(F)cc3)N(CCC3=CCCCC3)C2=O)cc1 (stereo not given),–,"inconclusive: 13 µM [cytotoxic, partial curve, poor fit]"
COc1cc(C(=O)NC2CCN(C)CC2)ccc1Nc1ncc2c(n1)N(C1CCCCC1)CCC(=O)N2C,–,"inconclusive: 0.0046 µM [cytotoxic, full curve, poor fit]"

# Part of the list above, with bars between the fields:
Compound | activity change, negative = cytotoxic | Potency
COc1ccccc1N1CCN(c2nc3ccc(C(=O)c4ccccc4)cc3n3c(C)nnc23)CC1 | inactive: 0.615% | –
O=S(=O)(c1ccc(-c2nnc(SCc3ccccc3)o2)cc1)N1CCCC1 | inconclusive: 0.578% | –

# Further entries

Compound,"activity change, negative = cytotoxic",Potency
CC(C)(C)c1ccc(S(=O)(=O)N2CCC(c3nc4ccc(Cl)cc4[nH]3)CC2)cc1,inactive: -18%,–
Cc1ccc(S(=O)(=O)N(C)C)cc1NC(=O)c1sccc1Cl,inactive: 9.45%,–
Cc1cccc(C(=O)Nc2cccc(C(=O)N/N=C/c3ccc4c(c3)OCO4)c2)c1,–,active: 13 µM
Cc1noc(C)c1-c1ccc(C(=O)NCc2ccc(Cl)cc2)c2occc12,inactive: -5.82%,–
O=S(=O)(Nc1nc2ccccc2nc1N1CCN(c2ccccc2F)CC1)c1ccc(Cl)cc1,–,active: 11.2 µM
Cc1cc(C(=O)O)sc1C,inactive: -3.49%,–
Cc1nn(-c2ccccc2)c2c1C(c1ccc(F)cc1F)C(C#N)=C(N)O2 (stereo not given),inactive: -2.14%,–
CCOC(=O)c1[nH]c2ccccc2c1NC(=O)c1ccccc1OCC,–,active: 1.64 µM
COc1ccccc1NC(=O)Cn1cc(C#N)c2ccccc21,–,"inconclusive: 14.6 µM [cytotoxic, partial curve, poor fit]"
O=C(Nc1ccc(N2CCCC2)c(S(=O)(=O)Nc2cccc(C(F)(F)F)c2)c1)c1cccs1,–,"inconclusive: 25.9 µM [cytotoxic, single point]"
O=C(N/N=C/c1cn(-c2ccccc2)nc1-c1cc2ccccc2o1)c1ccccc1Br,–,"inconclusive: 20.6 µM [cytotoxic, single point]"
S=c1[nH]nc(-c2ccccn2)n1/N=C/c1ccc(-c2ccccc2Br)o1,–,"inconclusive: 29.1 µM [cytotoxic, single point]"
Fc1ccc2[nH]c3c(N4CCN(Cc5ccc6c(c5)OCO6)CC4)ncnc3c2c1,–,active: 18.4 µM
CCCOP(=O)(OCCC)c1c([N+](=O)[O-])cc(C(F)(F)F)cc1[N+](=O)[O-],–,"inconclusive: 18.4 µM [cytotoxic, partial curve]"
O=C(Nc1ccc2c(c1)CCCN2C(=O)c1cccs1)c1cccc(C(F)(F)F)c1,–,"inconclusive: 20.6 µM [cytotoxic, partial curve, poor fit]"
Cc1cccc(CNc2ncnc3ccc(-c4ccc5c(c4)OCO5)cc23)c1,–,"inconclusive: 18.4 µM [cytotoxic, single point]"
COC(=O)c1c(NC(=O)CN2CCOCC2)sc2c1CCC(C)C2 (stereo not given),–,"inconclusive: 23.1 µM [cytotoxic, partial curve]"
CCOc1ccc2oc(C(=O)NCc3ccccc3CN3CCCC3)c(C)c2c1,–,"inconclusive: 29.1 µM [cytotoxic, single point]"
Clc1cccc(-n2ncc3c(NC4CCCCC4)ncnc32)c1,–,"inconclusive: 20.6 µM [cytotoxic, single point]"
O=C(O)c1cc(N2N=C(C(F)(F)F)/C(=C/C=C/c3ccco3)C2=O)ccc1Cl,inactive: -1.77%,–
O=C(N/N=C/c1cccs1)c1n[nH]c2c1CCCC2,–,"inconclusive: 29.1 µM [cytotoxic, single point]"
Cc1ccc(NCC(=O)Nc2ccc(Br)cc2)cc1C,inactive: -2.29%,–
O=C(NCCO)Nc1ccc(Cl)cc1,inconclusive: 0.599%,–
Cc1c(C(=O)Nc2ccc3c(c2)OCCO3)sc2nc(-c3ccccc3)cn12,–,"inconclusive: 25.9 µM [cytotoxic, single point]"

Compound,"activity change, negative = cytotoxic",Potency
CCCCCC(CC(=O)NO)C(=O)NC(C(=O)N1CCCC1CO)C(C)C (stereo not given),–,"inconclusive: 7.31 µM [cytotoxic, partial curve]"
Cc1cccc(N2CCN(C(=O)c3ccc4nc(-c5ccco5)c(-c5ccco5)nc4c3)CC2C)c1 (stereo not given),–,"inconclusive: 23.1 µM [cytotoxic, single point]"
CCCNC(=O)c1ccc2c(c1)N=C(C)c1c(C)ccc(C)c1S2,–,active: 0.82 µM
Nc1cc(Cl)nc(N/N=C/c2c(O)ccc3ccccc23)n1,inactive: -16.6%,–
c1ccc(CCNc2nc(-c3ccccn3)nc3ccccc23)cc1,–,active: 11.6 µM
COc1ccc(NC(=O)C(Sc2nnc(-c3ccncc3)n2-c2ccccc2C)c2ccccc2)cc1Cl (stereo not given),–,"inconclusive: 29.1 µM [rising, single point]"
NC(=O)NC(CC(=O)N1CCc2ccccc2C1)c1ccc(Cl)cc1 (stereo not given),inactive: 23.5%,–
Cc1ccc(S(=O)(=O)Nc2ccc3c(c2)nc2n3CCN(Cc3ccccc3)C2)cc1,inactive: -13.3%,–
CCN(CC)C(=O)C1=C(C)N(Cc2ccccc2)C(=O)C(CC(=O)NCCCCc2ccccc2)C1 (stereo not given),inactive: -2.54%,–
COc1ccc(C2C(C#N)=C(N)N(c3sc4c(c3C#N)CCCC4)C3=C2C(=O)CC(C)(C)C3)cc1OC (stereo not given),inactive: -6.44%,–
C=CCSc1nnc2n(CCc3ccccc3)c(=O)c3c4c(sc3n12)COC(C)(C)C4,–,"inconclusive: 29.1 µM [cytotoxic, single point]"
COc1cc(C(=O)O/N=C2/C=CC(=O)C(C)=C2C)cc(OC)c1OC,–,"inconclusive: 16.4 µM [cytotoxic, single point]"
OCCN1CCN(c2ncnc3c2ncn3[C@H]2CN(Cc3cccc(C(F)(F)F)c3)C[C@@H](CO)O2)CC1,inactive: 0%,–
COCCCNC(=O)Cn1c(=O)n(Cc2ccc(C(=O)NCc3ccc(C)cc3)cc2)c(=O)c2ccccc21,inactive: -0.0862%,–
CCCCN(CCCC)CC(O)c1cc(Cl)cc2c1-c1ccc(Cl)cc1C2=Cc1ccc(Cl)cc1 (stereo not given),–,"inconclusive: 32.6 µM [cytotoxic, single point]"
COc1ccc(OCC(O)Cn2c(=N)n(Cc3ccccc3)c3ccccc32)cc1 (stereo not given),–,"inconclusive: 32.6 µM [cytotoxic, partial curve, poor fit]"
CCOc1ccc2oc(C(=O)N3CCN(Cc4ccccc4)CC3)c(C)c2c1,inactive: 22.3%,–
Cc1[nH]c2c(ccc3ccccc32)c1C1C(CCN)C1(C)C (stereo not given),–,"inconclusive: 29.1 µM [cytotoxic, single point]"
COC(=O)c1c(NC(=O)c2cc(=O)c3ccc(C)c(C)c3o2)sc2c1CCCC2,inactive: 0.0845%,–
COc1cc(C(=O)N/N=C/c2ccc(OC(=O)c3ccccc3)c(OC)c2)ccc1O,–,"inconclusive: 20.6 µM [rising, single point]"
O=C(CNC(=O)C1CCCCC1)OCC(=O)c1ccc2c(c1)CCC2,–,"inconclusive: 18.4 µM [rising, partial curve, poor fit]"
CSCC[C@H](NC(=O)[C@@H]1Cc2c([nH]c3ccccc23)C2c3ccccc3C(=O)N21)C(=O)NCC1CCCO1 (stereo not given in full),inactive: -0.0837%,–

# As a working copy, 3 of the compounds above:
Compound,"activity change, negative = cytotoxic",Potency
OCCN1CCN(c2ncnc3c2ncn3[C@H]2CN(Cc3cccc(C(F)(F)F)c3)C[C@@H](CO)O2)CC1,inactive: 0%,–
COCCCNC(=O)Cn1c(=O)n(Cc2ccc(C(=O)NCc3ccc(C)cc3)cc2)c(=O)c2ccccc21,inactive: -0.0862%,–
CCCCN(CCCC)CC(O)c1cc(Cl)cc2c1-c1ccc(Cl)cc1C2=Cc1ccc(Cl)cc1 (stereo not given),–,"inconclusive: 32.6 µM [cytotoxic, single point]"

# From PubChem BioAssay AID1347075 (National Center for Advancing Translational Sciences (NCATS), 2019)
